Test results from the supplement of paper PMC10849652.
The list shows a part of the results. Residues, ends and D or L forms follow the SMILES beside them. *: point of attachment. Cbz = O=C(OCc1ccccc1)*

The chains behind the UniProt entries cited, without tags or fusion partners. Where a name states a change or a piece, a line headed by the entry shows the natural chain unless it says otherwise.
UniProt Q9NXK8: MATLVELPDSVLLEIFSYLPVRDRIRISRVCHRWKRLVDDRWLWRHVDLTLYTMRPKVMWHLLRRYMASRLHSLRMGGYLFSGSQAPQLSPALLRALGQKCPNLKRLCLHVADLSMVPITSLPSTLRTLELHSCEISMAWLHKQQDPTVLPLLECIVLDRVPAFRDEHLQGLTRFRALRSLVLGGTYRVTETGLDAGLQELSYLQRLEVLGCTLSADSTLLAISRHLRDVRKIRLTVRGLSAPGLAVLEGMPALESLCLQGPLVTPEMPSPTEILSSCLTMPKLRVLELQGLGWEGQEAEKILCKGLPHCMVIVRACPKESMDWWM
UniProt Q96CP2: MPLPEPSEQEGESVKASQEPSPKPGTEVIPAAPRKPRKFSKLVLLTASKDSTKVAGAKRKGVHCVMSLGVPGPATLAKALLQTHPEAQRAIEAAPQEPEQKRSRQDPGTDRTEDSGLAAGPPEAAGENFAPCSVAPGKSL
UniProt Q9UBU6: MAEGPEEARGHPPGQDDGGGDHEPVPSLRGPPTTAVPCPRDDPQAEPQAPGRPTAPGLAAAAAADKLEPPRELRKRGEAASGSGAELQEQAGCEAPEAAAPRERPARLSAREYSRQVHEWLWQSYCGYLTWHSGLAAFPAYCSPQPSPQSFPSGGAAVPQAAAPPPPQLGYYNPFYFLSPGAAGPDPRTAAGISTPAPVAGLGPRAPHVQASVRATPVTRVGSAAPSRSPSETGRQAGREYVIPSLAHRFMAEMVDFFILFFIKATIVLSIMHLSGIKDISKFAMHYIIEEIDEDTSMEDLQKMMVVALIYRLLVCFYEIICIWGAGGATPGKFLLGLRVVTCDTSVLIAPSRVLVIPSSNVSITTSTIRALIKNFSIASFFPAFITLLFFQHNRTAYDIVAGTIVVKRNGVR
UniProt Q9UKT5: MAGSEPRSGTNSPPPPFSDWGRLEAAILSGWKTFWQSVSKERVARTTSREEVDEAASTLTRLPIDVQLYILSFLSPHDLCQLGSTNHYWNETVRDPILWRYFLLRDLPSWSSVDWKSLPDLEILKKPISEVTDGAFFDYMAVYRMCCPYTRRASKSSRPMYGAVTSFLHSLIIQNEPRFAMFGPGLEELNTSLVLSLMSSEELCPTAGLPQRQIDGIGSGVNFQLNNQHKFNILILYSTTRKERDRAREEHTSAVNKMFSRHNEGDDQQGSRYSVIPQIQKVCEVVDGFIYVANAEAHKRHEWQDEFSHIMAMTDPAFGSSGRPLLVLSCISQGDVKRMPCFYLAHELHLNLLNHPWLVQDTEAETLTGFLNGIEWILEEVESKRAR
UniProt Q9BXW9: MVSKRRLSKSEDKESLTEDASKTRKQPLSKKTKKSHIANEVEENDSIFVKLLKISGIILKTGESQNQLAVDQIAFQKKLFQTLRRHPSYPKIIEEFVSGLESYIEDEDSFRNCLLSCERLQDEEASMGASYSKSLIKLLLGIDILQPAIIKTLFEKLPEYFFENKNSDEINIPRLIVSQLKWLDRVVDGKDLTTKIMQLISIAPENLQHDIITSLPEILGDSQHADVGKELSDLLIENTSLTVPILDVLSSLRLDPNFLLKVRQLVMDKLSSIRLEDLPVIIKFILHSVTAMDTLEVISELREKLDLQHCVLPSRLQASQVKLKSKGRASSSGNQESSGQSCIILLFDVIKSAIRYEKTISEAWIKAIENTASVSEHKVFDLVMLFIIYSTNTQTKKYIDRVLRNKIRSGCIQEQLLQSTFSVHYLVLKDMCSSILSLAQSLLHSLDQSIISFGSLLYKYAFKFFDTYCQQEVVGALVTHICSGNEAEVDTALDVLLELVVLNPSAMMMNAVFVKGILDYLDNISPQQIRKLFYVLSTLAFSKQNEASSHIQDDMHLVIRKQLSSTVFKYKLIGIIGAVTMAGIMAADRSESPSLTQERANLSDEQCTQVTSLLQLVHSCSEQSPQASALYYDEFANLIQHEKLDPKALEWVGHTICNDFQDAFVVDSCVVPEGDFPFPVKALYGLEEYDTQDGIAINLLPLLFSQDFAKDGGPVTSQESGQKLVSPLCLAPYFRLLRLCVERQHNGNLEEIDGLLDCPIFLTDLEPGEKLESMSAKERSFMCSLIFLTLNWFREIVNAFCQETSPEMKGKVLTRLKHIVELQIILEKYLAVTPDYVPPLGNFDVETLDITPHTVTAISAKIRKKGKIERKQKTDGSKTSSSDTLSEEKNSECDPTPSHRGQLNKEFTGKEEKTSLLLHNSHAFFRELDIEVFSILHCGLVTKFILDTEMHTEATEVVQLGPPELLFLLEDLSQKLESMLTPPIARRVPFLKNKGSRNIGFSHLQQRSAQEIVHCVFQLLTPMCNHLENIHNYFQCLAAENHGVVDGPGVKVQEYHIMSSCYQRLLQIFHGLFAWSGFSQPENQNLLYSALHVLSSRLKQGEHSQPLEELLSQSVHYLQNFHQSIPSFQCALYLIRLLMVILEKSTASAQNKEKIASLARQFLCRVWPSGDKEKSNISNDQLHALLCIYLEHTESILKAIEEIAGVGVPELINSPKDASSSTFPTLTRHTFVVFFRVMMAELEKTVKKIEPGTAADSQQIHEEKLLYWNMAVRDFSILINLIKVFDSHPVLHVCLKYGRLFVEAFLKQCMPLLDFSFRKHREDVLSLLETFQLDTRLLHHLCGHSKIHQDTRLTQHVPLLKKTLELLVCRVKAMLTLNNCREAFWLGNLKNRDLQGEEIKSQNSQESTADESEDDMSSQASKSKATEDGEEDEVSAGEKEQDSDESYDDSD
UniProt Q14315, whole entry, looked up: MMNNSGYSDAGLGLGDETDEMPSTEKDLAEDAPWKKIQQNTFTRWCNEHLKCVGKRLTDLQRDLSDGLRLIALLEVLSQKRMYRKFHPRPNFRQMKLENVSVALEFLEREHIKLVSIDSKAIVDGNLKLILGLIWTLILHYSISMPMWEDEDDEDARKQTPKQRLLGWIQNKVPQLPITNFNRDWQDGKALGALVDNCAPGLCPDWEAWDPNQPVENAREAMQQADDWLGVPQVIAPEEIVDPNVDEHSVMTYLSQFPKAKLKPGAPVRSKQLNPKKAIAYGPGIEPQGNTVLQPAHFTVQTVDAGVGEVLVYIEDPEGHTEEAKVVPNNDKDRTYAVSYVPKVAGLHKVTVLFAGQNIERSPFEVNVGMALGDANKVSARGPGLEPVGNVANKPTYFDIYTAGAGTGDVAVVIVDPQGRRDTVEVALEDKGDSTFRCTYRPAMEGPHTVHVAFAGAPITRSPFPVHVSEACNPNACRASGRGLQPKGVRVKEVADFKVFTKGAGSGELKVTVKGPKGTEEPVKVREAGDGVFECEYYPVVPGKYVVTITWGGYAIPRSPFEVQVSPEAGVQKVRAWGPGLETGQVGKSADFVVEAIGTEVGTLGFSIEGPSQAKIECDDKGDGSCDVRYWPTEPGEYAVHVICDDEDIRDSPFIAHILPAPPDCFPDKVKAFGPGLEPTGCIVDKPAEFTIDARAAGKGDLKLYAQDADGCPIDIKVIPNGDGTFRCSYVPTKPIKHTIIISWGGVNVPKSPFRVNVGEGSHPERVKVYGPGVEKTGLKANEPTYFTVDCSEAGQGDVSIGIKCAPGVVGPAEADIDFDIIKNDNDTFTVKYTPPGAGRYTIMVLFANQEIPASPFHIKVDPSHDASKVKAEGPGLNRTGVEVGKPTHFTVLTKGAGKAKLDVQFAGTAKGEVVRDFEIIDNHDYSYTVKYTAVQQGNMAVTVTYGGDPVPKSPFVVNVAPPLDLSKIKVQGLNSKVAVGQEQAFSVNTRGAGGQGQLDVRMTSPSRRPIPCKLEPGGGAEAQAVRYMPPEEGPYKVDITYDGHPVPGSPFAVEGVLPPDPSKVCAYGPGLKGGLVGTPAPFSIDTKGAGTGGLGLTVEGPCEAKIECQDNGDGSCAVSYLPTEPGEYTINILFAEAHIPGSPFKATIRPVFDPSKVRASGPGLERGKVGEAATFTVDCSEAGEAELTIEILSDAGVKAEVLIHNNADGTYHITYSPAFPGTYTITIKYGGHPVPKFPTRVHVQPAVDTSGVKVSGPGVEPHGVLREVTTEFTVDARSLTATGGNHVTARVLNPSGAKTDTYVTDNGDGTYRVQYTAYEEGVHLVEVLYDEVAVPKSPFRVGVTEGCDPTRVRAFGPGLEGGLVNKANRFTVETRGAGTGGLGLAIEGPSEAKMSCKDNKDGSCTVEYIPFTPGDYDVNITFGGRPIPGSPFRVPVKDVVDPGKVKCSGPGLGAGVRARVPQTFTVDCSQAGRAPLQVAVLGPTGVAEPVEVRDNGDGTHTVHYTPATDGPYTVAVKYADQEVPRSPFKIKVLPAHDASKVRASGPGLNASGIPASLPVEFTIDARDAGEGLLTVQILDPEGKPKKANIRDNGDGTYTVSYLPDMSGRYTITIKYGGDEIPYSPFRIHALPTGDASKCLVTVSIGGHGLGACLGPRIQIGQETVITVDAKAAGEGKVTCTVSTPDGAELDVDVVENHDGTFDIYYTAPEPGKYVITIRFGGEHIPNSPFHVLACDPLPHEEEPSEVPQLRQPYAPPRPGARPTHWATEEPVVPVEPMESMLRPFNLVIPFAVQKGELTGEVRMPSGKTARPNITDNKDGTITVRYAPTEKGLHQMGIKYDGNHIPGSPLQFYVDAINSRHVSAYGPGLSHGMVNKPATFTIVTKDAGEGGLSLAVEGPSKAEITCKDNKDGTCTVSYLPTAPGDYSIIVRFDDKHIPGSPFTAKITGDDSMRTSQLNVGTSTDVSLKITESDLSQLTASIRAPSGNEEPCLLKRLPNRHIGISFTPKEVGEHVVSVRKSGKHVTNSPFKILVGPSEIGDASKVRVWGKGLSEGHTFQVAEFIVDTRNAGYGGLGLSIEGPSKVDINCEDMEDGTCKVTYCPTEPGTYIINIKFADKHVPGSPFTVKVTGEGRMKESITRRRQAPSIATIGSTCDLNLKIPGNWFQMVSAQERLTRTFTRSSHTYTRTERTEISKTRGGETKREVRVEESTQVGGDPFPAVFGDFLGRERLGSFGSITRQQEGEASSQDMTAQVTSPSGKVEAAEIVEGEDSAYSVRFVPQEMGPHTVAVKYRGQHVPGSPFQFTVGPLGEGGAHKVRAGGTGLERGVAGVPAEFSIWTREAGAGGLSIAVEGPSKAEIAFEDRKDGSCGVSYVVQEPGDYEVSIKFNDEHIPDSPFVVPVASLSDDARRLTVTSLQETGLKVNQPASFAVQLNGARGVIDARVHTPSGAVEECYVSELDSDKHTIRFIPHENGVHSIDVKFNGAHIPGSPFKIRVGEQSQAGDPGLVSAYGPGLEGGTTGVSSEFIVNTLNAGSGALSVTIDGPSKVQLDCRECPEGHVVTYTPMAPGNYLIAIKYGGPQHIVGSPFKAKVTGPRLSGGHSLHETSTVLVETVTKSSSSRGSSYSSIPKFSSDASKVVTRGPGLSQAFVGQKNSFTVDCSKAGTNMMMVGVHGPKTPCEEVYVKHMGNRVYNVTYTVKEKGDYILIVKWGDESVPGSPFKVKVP
UniProt Q9Y3I1: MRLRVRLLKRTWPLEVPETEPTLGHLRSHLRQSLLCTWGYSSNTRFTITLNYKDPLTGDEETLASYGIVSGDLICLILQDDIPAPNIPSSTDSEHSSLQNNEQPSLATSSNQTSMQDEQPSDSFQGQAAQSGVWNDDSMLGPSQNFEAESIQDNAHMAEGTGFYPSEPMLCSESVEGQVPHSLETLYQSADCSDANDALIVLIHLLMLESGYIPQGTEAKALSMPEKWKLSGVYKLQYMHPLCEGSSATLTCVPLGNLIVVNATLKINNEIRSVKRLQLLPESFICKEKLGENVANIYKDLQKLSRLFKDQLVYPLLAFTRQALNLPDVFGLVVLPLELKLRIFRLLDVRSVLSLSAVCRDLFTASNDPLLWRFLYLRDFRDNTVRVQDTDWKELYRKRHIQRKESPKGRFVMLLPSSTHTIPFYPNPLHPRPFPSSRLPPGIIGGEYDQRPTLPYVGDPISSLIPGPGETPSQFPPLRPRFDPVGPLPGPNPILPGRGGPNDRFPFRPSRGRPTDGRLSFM
UniProt Q9H4H8: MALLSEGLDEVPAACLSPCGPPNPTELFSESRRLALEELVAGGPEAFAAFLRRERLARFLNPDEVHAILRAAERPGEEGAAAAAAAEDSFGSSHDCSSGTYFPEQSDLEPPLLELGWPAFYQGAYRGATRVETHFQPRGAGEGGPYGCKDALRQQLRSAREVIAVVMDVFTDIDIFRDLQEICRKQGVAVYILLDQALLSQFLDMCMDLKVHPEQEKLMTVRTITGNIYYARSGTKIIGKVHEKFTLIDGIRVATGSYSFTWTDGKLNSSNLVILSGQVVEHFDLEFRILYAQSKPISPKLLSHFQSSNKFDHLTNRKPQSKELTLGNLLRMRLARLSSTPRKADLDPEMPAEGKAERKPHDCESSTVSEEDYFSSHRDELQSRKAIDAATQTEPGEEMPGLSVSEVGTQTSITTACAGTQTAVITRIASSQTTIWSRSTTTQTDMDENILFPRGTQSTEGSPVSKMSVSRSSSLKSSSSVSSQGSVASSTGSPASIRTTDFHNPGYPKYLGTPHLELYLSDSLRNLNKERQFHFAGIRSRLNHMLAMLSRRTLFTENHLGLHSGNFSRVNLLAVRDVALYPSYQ

Tests used:
Experiment in all cases: log2 fold change, soluble protein after heating vs DMSO (PISA); higher = thermal stabilisation; K562 cells, 10 uM, 30 min; active = over 0.2 and 3.5 SD of the protein, either way, in both replicates (recomputed)
erlotinib = compound: C#Cc1cccc(Nc2ncnc3cc(OCCOC)c(OCCOC)cc23)c1 [erlotinib]
In short: (§1)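 For each measurement, 10 μM compound was applied for 30 min to K562 cells at 2×10^6 cells/mL. Aliquots were heated for 3 min across 48°C-58°C, pooled, and extracted in PBS with 0.5% NP-40 at 4°C; the supernatant after 21,000xg for 90 min was soluble protein. This was quantified by TMTpro 16plex LC-MS/MS with channel sums equalised, and thermal stability was reported relative to control samples from duplicates, on a log2 fold-change scale.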

[1] = compound: C/C(=N\NC(=O)C1=CC(=CC=C1)S(=O)(=O)N2CCOCC2)/C3=C(C=CC(=C3)Cl)O
In short: as §1

[2] = compound: C1=CC(=C(C=C1Cl)C2=NC3=NC=CN=C3C(=N2)NC4=CC=NC=C4)F
In short: as §1

[3] = compound: C1=CC(=CC=C1C2=NC3=C(N2)C=C(C=C3)C(=O)N)OC4=CC=C(C=C4)Cl
In short: as §1

[4] = compound: C1=CC2=C(C=CC(=C2)/C=C\3/C(=O)NC(=NCC4=CC=CS4)S3)N=C1
In short: as §1

[5] = compound: C1=CC2=NC=CN=C2C=C1/C=C/3\C(=O)NC(=O)S3
In short: as §1

[6] = compound: C1=CC=C(C=C1)C2=NC(=C(N2)C3=CC=NC=C3)C4=CC(=C(C=C4)Cl)O
In short: as §1

[7] = compound: C1=CC=C2C(=C1)C3=NNC4=CC=CC(=C43)C2=O
In short: as §1

[8] = compound: C1CCN(C1)C(=O)NC2=CC=CC(=C2)NC3=NC=C(C(=N3)NCCC4=CN=CN4)Br
In short: as §1

[9] = compound: C1CN(CCC1(CC2=CC=C(C=C2)Cl)N)C3=NC=NC4=C3C=CN4
In short: as §1

IRAK-1-4 Inhibitor I = compound: C1COCCN1CCN2C3=CC=CC=C3N=C2NC(=O)C4=CC(=CC=C4)[N+](=O)[O-] [IRAK-1-4 Inhibitor I]
In short: as §1

ibrutinib = compound: C=CC(=O)N1CCC[C@@H](n2nc(-c3ccc(Oc4ccccc4)cc3)c3c(N)ncnc32)C1 [ibrutinib]
In short: as §1

[10] = compound: CC(=O)c1cnc2ccc(-c3cc(Cl)c(O)c(Cl)c3)nc2c1N[C@H]1CC[C@H](CN(C)C)CC1
In short: as §1

ralimetinib = compound: CC(C)(C)Cn1c(N)nc2ccc(-c3[nH]c(C(C)(C)C)nc3-c3ccc(F)cc3)nc21 [ralimetinib]
In short: as §1

[11] = compound: CC(C)(O)CC(=O)NCCn1ccc2ncnc(Nc3ccc(Oc4cccc(C(F)(F)F)c4)c(Cl)c3)c21
In short: as §1

[12] = compound: CC(C)C1=C2N=C(C=C(N2N=C1)NCC3=CC=CC=C3)NCCCCCCN
In short: as §1

[13] = compound: CC(C)C[C@@H](C=O)NC(=O)[C@H](CC(C)C)NC(=O)[C@H](CC(C)C)NC(=O)OCc1ccccc1
In short: as §1

pinometostat = compound: CC(C)N(C[C@H]1O[C@@H](n2cnc3c(N)ncnc32)[C@H](O)[C@@H]1O)[C@H]1C[C@@H](CCc2nc3cc(C(C)(C)C)ccc3[nH]2)C1 [pinometostat]
In short: as §1

[14] = compound: CC1=C(C(CC(=O)N1)C2=CC=C(C=C2)C(F)(F)F)C(=O)NC3=C(C=C4C(=C3)C=NN4)F
In short: as §1

[15] = compound: CC1=C(C2=C(C=C1)C(=O)C3=CC=CC=C3N2CCCN)C
In short: as §1

| Target | log2 fold change (erlotinib) | log2 fold change [1] | log2 fold change [2] | log2 fold change [3] | log2 fold change [4] | log2 fold change [5] | log2 fold change [6] | log2 fold change [7] | log2 fold change [8] | log2 fold change [9] | log2 fold change (IRAK-1-4 Inhibitor I) | log2 fold change (ibrutinib) | log2 fold change [10] | log2 fold change (ralimetinib) | log2 fold change [11] | log2 fold change [12] | log2 fold change [13] | log2 fold change (pinometostat) | log2 fold change [14] | log2 fold change [15] |
| --- | --- | --- | --- | --- | --- | --- | --- | --- | --- | --- | --- | --- | --- | --- | --- | --- | --- | --- | --- | --- |
| FBH1 isoform 2 (UniProt Q8NFZ0) | inactive: -0.131 | inactive: 0.031 | inactive: 0.033 | inactive: -0.189 | inactive: 0.107 | inactive: -0.003 | inactive: 0.028 | inactive: 0.004 | inactive: -0.007 | inactive: -0.033 | inactive: -0.028 | inactive: 0.118 | inactive: -0.155 | inactive: -0.111 | inactive: -0.069 | inactive: 0.226 | inactive: -0.006 | inactive: -0.064 | inactive: 0.101 | inactive: 0.06 |
| FNBP4 isoform 2 (UniProt Q8N3X1) | inactive: 0.001 | inactive: -0.013 | inactive: -0.03 | inactive: -0.006 | inactive: -0.02 | inactive: 0.05 | inactive: -0.031 | inactive: -0.016 | inactive: 0.002 | inactive: 0.038 | inactive: 0.052 | inactive: 0.058 | inactive: -0.009 | inactive: -0.03 | inactive: 0.038 | inactive: 0.061 | inactive: 0.014 | inactive: -0.004 | inactive: 0.023 | inactive: -0.038 |
| FLT4 (UniProt P35916) | inactive: 0.596 | inactive: 0.018 | inactive: -0.014 | inactive: -0.004 | inactive: 0.035 | inactive: 0.038 | inactive: -0.039 | inactive: -0.018 | inactive: -0.021 | inactive: -0.051 | inactive: -0.001 | inactive: 0.012 | inactive: 0.007 | inactive: -0.083 | inactive: -0.055 | inactive: 0.032 | inactive: -0.004 | inactive: -0.094 | inactive: -0.009 | inactive: 0.086 |
| FCGR2A (UniProt P12318) | inactive: 0.136 | inactive: 0.114 | inactive: -0.194 | inactive: -0.017 | inactive: 0.056 | inactive: -0.076 | inactive: 0.037 | inactive: -0.117 | inactive: -0.067 | inactive: 0.011 | inactive: -0.039 | inactive: 0.044 | inactive: -0.225 | inactive: 0.041 | inactive: 0.131 | inactive: 0.182 | inactive: 0.019 | inactive: 0.067 | inactive: -0.178 | inactive: 0.077 |
| FBXL12 (UniProt Q9NXK8) | inactive: 0.007 | inactive: 0.177 | inactive: 0.028 | inactive: -0.03 | inactive: 0.032 | inactive: -0.068 | inactive: 0.12 | inactive: -0.071 | inactive: -0.121 | inactive: 0.06 | inactive: 0.229 | inactive: -0.01 | inactive: 0.018 | inactive: -0.01 | inactive: -0.038 | inactive: -0.014 | inactive: -0.187 | inactive: -0.252 | inactive: -0.014 | inactive: 0.151 |
| FLYWCH2 (UniProt Q96CP2) | inactive: 0.02 | inactive: 0.014 | inactive: 0.047 | inactive: 0.028 | inactive: -0.048 | inactive: -0.009 | inactive: -0.075 | inactive: 0.031 | inactive: -0.027 | inactive: 0.07 | inactive: -0.014 | inactive: 0.017 | inactive: 0.023 | inactive: -0.023 | inactive: -0.03 | inactive: 0.07 | inactive: 0.009 | inactive: 0.004 | inactive: 0.024 | inactive: 0.025 |
| FLNB isoform 8 (UniProt O75369) | inactive: -0.023 | inactive: 0.046 | inactive: 0.037 | inactive: -0.005 | inactive: 0.007 | inactive: 0.018 | inactive: -0.025 | inactive: -0.018 | inactive: -0.002 | inactive: -0.048 | inactive: 0.013 | inactive: -0.021 | inactive: 0.008 | inactive: -0.009 | inactive: -0.01 | inactive: 0.017 | inactive: 0.018 | inactive: 0.005 | inactive: -0.049 | inactive: 0.012 |
| FAM8A1 (UniProt Q9UBU6) | inactive: -0.024 | inactive: -0.036 | inactive: 0.012 | inactive: -0.065 | inactive: 0.031 | inactive: -0.04 | inactive: 0.01 | inactive: 0.015 | inactive: -0.083 | inactive: 0.018 | inactive: 0.024 | inactive: 0.009 | inactive: 0.001 | inactive: 0.051 | inactive: -0.038 | inactive: -0.133 | inactive: -0.09 | inactive: -0.096 | inactive: -0.014 | inactive: -0.138 |
| FBXW2 (UniProt Q9UKT8) | inactive: -0.012 | inactive: -0.059 | inactive: 0.091 | inactive: 0.269 | inactive: 0.063 | inactive: -0.129 | inactive: -0.184 | inactive: 0.011 | inactive: 0.061 | inactive: 0.136 | inactive: -0.051 | inactive: 0.091 | inactive: -0.02 | inactive: -0.188 | inactive: -0.032 | inactive: -0.053 | inactive: 0.134 | inactive: 0.074 | – | inactive: 0.042 |
| FBXO4 (UniProt Q9UKT5) | inactive: 0.061 | inactive: 0.074 | inactive: 0.102 | inactive: 0.035 | inactive: 0.106 | inactive: 0.001 | inactive: 0.023 | inactive: 0.007 | inactive: -0.014 | inactive: -0.021 | inactive: 0.054 | inactive: 0.02 | inactive: -0.025 | inactive: 0.016 | inactive: -0.149 | inactive: -0.052 | inactive: -0.021 | inactive: -0.001 | inactive: 0.014 | inactive: 0.149 |
| FANCD2 isoform 1 (UniProt Q9BXW9) | inactive: 0.077 | inactive: 0.075 | inactive: -0.003 | inactive: 0.012 | inactive: 0.145 | inactive: 0.02 | inactive: 0 | inactive: -0.012 | inactive: -0.008 | inactive: 0.02 | inactive: -0.002 | inactive: 0.025 | inactive: -0.155 | inactive: -0.082 | inactive: -0.029 | active: -0.354 | inactive: -0.266 | inactive: 0.062 | – | active: -0.369 |
| FLNC (UniProt Q14315) | inactive: -0.015 | inactive: 0.028 | inactive: 0.005 | inactive: -0.016 | inactive: 0.012 | inactive: 0.036 | inactive: 0.014 | inactive: -0.01 | inactive: 0.012 | inactive: -0.034 | inactive: 0.005 | inactive: -0.01 | inactive: 0.036 | inactive: 0.006 | inactive: 0.001 | inactive: -0.003 | inactive: -0.004 | inactive: -0.003 | inactive: -0.008 | inactive: 0.009 |
| FBXO7 (UniProt Q9Y3I1) | inactive: 0.039 | inactive: 0.033 | inactive: 0.014 | inactive: -0.055 | inactive: 0.033 | inactive: -0.038 | inactive: 0.001 | inactive: -0.014 | inactive: 0.005 | inactive: 0 | inactive: -0.008 | inactive: 0.036 | inactive: -0.024 | inactive: -0.005 | inactive: -0.068 | inactive: 0.001 | inactive: -0.013 | inactive: 0.042 | – | inactive: 0.044 |
| FNTA (UniProt P49354) | inactive: 0.245 | inactive: -0.033 | inactive: 0.116 | inactive: -0.017 | inactive: 0.075 | inactive: -0.009 | inactive: 0.051 | inactive: -0.034 | inactive: 0.065 | inactive: 0.106 | inactive: 0.052 | inactive: 0.107 | inactive: 0.081 | inactive: -0.05 | inactive: -0.023 | inactive: 0.016 | inactive: -0.031 | inactive: -0.018 | – | inactive: -0.074 |
| FAM83D (UniProt Q9H4H8) | inactive: 0.035 | inactive: 0.027 | inactive: -0.124 | inactive: -0.015 | inactive: -0.016 | inactive: 0.02 | inactive: 0.086 | inactive: 0.059 | inactive: -0.071 | inactive: -0.062 | inactive: 0 | inactive: -0.094 | inactive: 0.022 | inactive: 0.145 | inactive: -0.035 | inactive: -0.232 | inactive: -0.062 | inactive: 0.041 | – | inactive: 0.1 |
| FAR1 (UniProt Q8WVX9) | inactive: 0.059 | inactive: 0.1 | inactive: 0.057 | inactive: 0.004 | inactive: -0.014 | inactive: 0.065 | inactive: -0.073 | inactive: 0.006 | inactive: -0.016 | inactive: 0.056 | inactive: -0.014 | inactive: -0.011 | inactive: -0.011 | inactive: -0.052 | inactive: -0.036 | inactive: -0.098 | inactive: 0.112 | inactive: -0.023 | inactive: -0.019 | inactive: 0.029 |

Taken from the results shown (2 entries):

| Target | log2 fold change (erlotinib) | log2 fold change [1] | log2 fold change [2] | log2 fold change [3] | log2 fold change [4] | log2 fold change [5] | log2 fold change [6] | log2 fold change [7] | log2 fold change [8] | log2 fold change [9] | log2 fold change (IRAK-1-4 Inhibitor I) | log2 fold change (ibrutinib) | log2 fold change [10] | log2 fold change (ralimetinib) | log2 fold change [11] | log2 fold change [12] | log2 fold change [13] | log2 fold change (pinometostat) | log2 fold change [14] | log2 fold change [15] |
| --- | --- | --- | --- | --- | --- | --- | --- | --- | --- | --- | --- | --- | --- | --- | --- | --- | --- | --- | --- | --- |
| FBXO7 (UniProt Q9Y3I1) | inactive: 0.039 | inactive: 0.033 | inactive: 0.014 | inactive: -0.055 | inactive: 0.033 | inactive: -0.038 | inactive: 0.001 | inactive: -0.014 | inactive: 0.005 | inactive: 0 | inactive: -0.008 | inactive: 0.036 | inactive: -0.024 | inactive: -0.005 | inactive: -0.068 | inactive: 0.001 | inactive: -0.013 | inactive: 0.042 | – | inactive: 0.044 |
| FNTA (UniProt P49354) | inactive: 0.245 | inactive: -0.033 | inactive: 0.116 | inactive: -0.017 | inactive: 0.075 | inactive: -0.009 | inactive: 0.051 | inactive: -0.034 | inactive: 0.065 | inactive: 0.106 | inactive: 0.052 | inactive: 0.107 | inactive: 0.081 | inactive: -0.05 | inactive: -0.023 | inactive: 0.016 | inactive: -0.031 | inactive: -0.018 | – | inactive: -0.074 |
